Measured values from article PMC7235348.
These are yes or no findings as the source states them, for the method shown. Binding seen in cells or lysates may run through a third protein. Here binding means that the protein was enriched with, or labelled near, the bait; the list need not be complete.

T1: MgsR^C-Strep (Bacillus subtilis) (UniProt P54503)
T1 sequence: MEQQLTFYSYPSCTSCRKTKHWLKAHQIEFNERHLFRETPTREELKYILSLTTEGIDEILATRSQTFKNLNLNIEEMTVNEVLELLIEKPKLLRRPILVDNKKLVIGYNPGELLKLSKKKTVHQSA


What was measured:
[1] = target: T1, MgsR^C-Strep (Bacillus subtilis); assay: affinity purification with mass spectrometry; Strep-tag purification of MgsR^C-Strep without formaldehyde crosslinking, after 4% ethanol stress; SDS-PAGE with silver staining and MS of gel lanes
[2] = target: T1, MgsR^C-Strep (Bacillus subtilis); assay: affinity purification with mass spectrometry; SPINE: in vivo crosslinking with 0.6% formaldehyde (20 min, 37°C) added 10 min after 4% ethanol, Strep-tag purification of MgsR^C-Strep from French-press lysate in buffer W (200 mM NaCl, 50 mM Tris/HCl, pH 8.0), crosslinks reversed by heating, gel lanes digested and analysed by MS; crosslinked wild-type 168 as negative control
[3] = target: T1, MgsR^C-Strep (Bacillus subtilis); assay: as above; remark: listed apart in the source

binding [1] | binding [2] | binding [3] | Molecule
binds | binds |  | RNA polymerase subunit RpoB (from UniProt P37870 1-1193)
binds |  |  | chaperonin GroEL (from UniProt P28598 1-544)
binds | binds |  | ClpC ATPase (from UniProt P37571 1-810)
binds | binds |  | ClpX ATPase (from UniProt P50866 1-420)
 |  | binds weakly | LonA (protein, UniProt P37945 1-774) MAEELKRSIPLLPLRGLLVYPTMVLHLDVGRDKSVQALEQAMMHDHMIFLATQQDISIDEPGEDEIFTVGTYTKIKQMLKLPNGTIRVLVEGLKRAHIVKYNEHEDYTSVDIQLIHEDDSKDTEDEALMRTLLDHFDQYIKISKKISAETYAAVTDIEEPGRMADIVASHLPLKLKDKQDILETADVKDRLNKVIDFINNEKEVLEIEKKIGQRVKRSMERTQKEYYLREQMKAIQKELGDKEGKTGEVQTLTEKIEEAGMPDHVKETALKELNRYEKIPSSSAESSVIRNYIDWLVALPWTDETDDKLDLKEAGRLLDEEHHGLEKVKERILEYLAVQKLTKSLKGPILCLAGPPGVGKTSLAKSIAKSLGRKFVRISLGGVRDESEIRGHRRTYVGAMPGRIIQGMKKAGKLNPVFLLDEIDKMSSDFRGDPSSAMLEVLDPEQNSSFSDHYIEETFDLSKVLFIATANNLATIPGPLRDRMEIINIAGYTEIEKLEIVKDHLLPKQIKEHGLKKSNLQLRDQAILDIIRYYTREAGVRSLERQLAAICRKAAKAIVAEERKRITVTEKNLQDFIGKRIFRYGQAETEDQVGVVTGLAYTTVGGDTLSIEVSLSPGKGKLILTGKLGDVMRESAQAAFSYVRSKTEELGIEPDFHEKYDIHIHVPEGAVPKDGPSAGITMATALVSALTGRAVSREVGMTGEITLRGRVLPIGGLKEKALGAHRAGLTTIIAPKDNEKDIEDIPESVREGLTFILASHLDEVLEHALVGEKK
 |  | binds | RpoA, the α subunit of RNA polymerase (protein, UniProt P20429 1-314) MIEIEKPKIETVEISDDAKFGKFVVEPLERGYGTTLGNSLRRILLSSLPGAAVTSIQIDGVLHEFSTIEGVVEDVTTIILHIKKLALKIYSDEEKTLEIDVQGEGTVTAADITHDSDVEILNPDLHIATLGENASFRVRLTAQRGRGYTPADANKRDDQPIGVIPIDSIYTPVSRVSYQVENTRVGQVANYDKLTLDVWTDGSTGPKEAIALGSKILTEHLNIFVGLTDEAQHAEIMVEKEEDQKEKVLEMTIEELDLSVRSYNCLKRAGINTVQELANKTEEDMMKVRNLGRKSLEEVKAKLEELGLGLRKDD
 |  | binds | McsB arginine kinase (enzyme, UniProt P37570 1-363) MSLKHFIQDALSSWMKQKGPESDIVLSSRIRLARNFEHIRFPTRYSNEEASSIIQQFEDQFSEQEIPGIGKFVLIRMNDAQPLEKRVLVEKHLISPNLTESPFGGCLLSENEEVSVMLNEEDHIRIQCLFPGFQLLEAMKAANQVDDWIEEKVDYAFNEQRGYLTSCPTNVGTGLRASVMMHLPALVLTRQINRIIPAINQLGLVVRGIYGEGSEAVGNIFQISNQITLGKSEQDIVEDLNSVAAQLIEQERSAREAIYQTSKIELEDRVYRSYGVLSNCRMIESKETAKCLSDVRLGIDLGIIKGLSSNILNELMILTQPGFLQQYSGGALRPNERDIRRAALIRERLHLEMNGKRQEDESI
